# Values from PubChem BioAssay AID1259254 (NCATS, 2017).
# Assay: 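Gene knock-downs that lead to re-replication, shown by excess G2 DNA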 (primary screen)
# System: human HCT116 colorectal cancer cells
# Reagents: single siRNA against human genes
# Timing: 3 days
# Measured: 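Imaged Hoechst DNA stain sorts each cell into a cycle phase by DNA amount; per plate, G2 fraction set to 0% for non-targeting and 100% for GMNN siRNA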
# Direction: G2 robust z-score and G2 cells, % of GMNN control: higher = more G2 cells, more excess DNA replication; raw share of cells in G2: higher = larger share of cells with G2 DNA content
# Hit rule: 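An siRNA counts as active if its G2 robust z-score lies at least 5 MADs above the screen median; here such calls match roughly 38% of GMNN control or more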
# Shown is a random part of about 59,000 reagents. Of all reagents, about 1,550 (2.6%) got an active call. 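G2 share is only a proxy for re-replication; each gene was hit by three separate siRNAs, and active genes were retested.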 Raw values vary from plate to plate and are shown uncorrected. Entries without a mark were called inactive. The numbers tell different reagents against one gene apart. Reagent sequences are not shown. Not stated in the record: the amount of reagent.
gene knocked down,reagent,G2 robust z-score,"G2 cells, % of GMNN control",raw share of cells in G2 (%)
DDX51,1,-0.139,1.99,5.74
DDX51,2,-0.358,0.45,4.45
DDX51,3,8.15 (active),60.3,32
GJB6,1,-0.0822,2.39,4.32
GJB6,2,-0.878,-3.21,4.56
GJB6,3,-0.573,-1.07,2.89
C1orf52,1,1.41,12.9,8.14
C1orf52,2,2.89,23.3,10.1
C1orf52,3,-0.434,-0.0868,3.04
POU2F3-AS1,1,-1.05,-4.39,1.41
POU2F3-AS1,2,-0.749,-2.3,2.33
POU2F3-AS1,3,-0.874,-3.18,1.83
DKFZp434E1119 (retired record),1,-0.256,1.17,4.07
DKFZp434E1119 (retired record),2,0.557,6.89,5.71
DKFZp434E1119 (retired record),3,-0.648,-1.59,2.78
VCP,1,0.174,4.19,5.82
VCP,2,0.423,5.95,6.43
VCP,3,3.58,28.2,17.5
SPP1,1,0.265,4.83,7.31
SPP1,2,5.42 (active),41.1,18.6
SPP1,3,-0.0656,2.51,4.79
ZSWIM9,1,-0.383,0.274,4.08
ZSWIM9,2,-0.69,-1.89,2.43
ZSWIM9,3,-0.669,-1.74,3.49
SREBF1,1,2.13,17.9,10.6
SREBF1,2,-1.08,-4.65,2.67
SREBF1,3,-1.19,-5.43,1.14
YPEL2,1,-0.107,2.21,4.53
YPEL2,2,-0.816,-2.78,2.2
YPEL2,3,1.51,13.6,10.5
PLEKHF1,1,0.388,5.69,4.8
PLEKHF1,2,0.921,9.45,10.2
PLEKHF1,3,0.0386,3.24,4.65
MMP17,1,-0.894,-3.32,4.4
MMP17,2,1.06,10.4,8.59
MMP17,3,-0.818,-2.79,2.87
SEPTIN7P14,1,5.37 (active),40.8,19.2
SEPTIN7P14,2,0.18,4.23,4.79
SEPTIN7P14,3,-0.223,1.4,3.49
BMP10,1,-0.646,-1.58,3.25
BMP10,2,0.229,4.58,6.28
BMP10,3,-0.662,-1.69,2.72
PPP1R12C,1,2.25,18.8,10.9
PPP1R12C,2,0.954,9.68,7.22
PPP1R12C,3,-0.916,-3.47,2.45
RLN1,1,-1.42,-7.04,1.8
RLN1,2,-0.508,-0.608,4.77
RLN1,3,1.89,16.2,10.9
DLEU7,1,1.4,12.8,8.24
DLEU7,2,0.033,3.2,4.23
DLEU7,3,-0.403,0.134,3.24
UFL1,1,-0.435,-0.0938,4.38
UFL1,2,-0.347,0.525,4.17
UFL1,3,4.92,37.6,16.4
RTTN,1,-0.807,-2.71,3.39
RTTN,2,-0.663,-1.7,3.2
RTTN,3,-0.282,0.982,3.64
COL11A1,1,-0.34,0.574,5.57
COL11A1,2,0.26,4.8,5.84
COL11A1,3,-0.407,0.106,3.56
TCAF1,1,0.594,7.15,8.56
TCAF1,2,1.91,16.4,10.8
TCAF1,3,-0.465,-0.301,3.3
ATP1B2,1,0.922,9.45,7.94
ATP1B2,2,-0.383,0.274,5.17
ATP1B2,3,0.318,5.21,5.93
SESN3,1,-0.837,-2.92,2.85
SESN3,2,4.04,31.4,12.6
SESN3,3,0.0348,3.21,4.19
NDUFS5,1,0.0364,3.22,4.26
NDUFS5,2,-0.863,-3.1,4.16
NDUFS5,3,-1.56,-7.98,2.31
ANKRD26,1,-1.21,-5.54,2.81
ANKRD26,2,0.526,6.67,6.89
ANKRD26,3,7.32 (active),54.5,23.5
MUSTN1,1,1.07,10.5,7.36
MUSTN1,2,0.19,4.31,5.28
MUSTN1,3,5.33 (active),40.5,22
MGC70870,1,0.0851,3.57,5.11
MGC70870,2,0.00521,3,4.71
MGC70870,3,1.8,15.6,11.3
DEFB107A,1,-0.0603,2.54,4.01
DEFB107A,2,-0.812,-2.75,2.58
DEFB107A,3,-0.848,-3,2.1
CDCA8,1,10.6 (active),77.2,34.2
CDCA8,2,13.4 (active),97.1,44.4
CDCA8,3,6.34 (active),47.6,18.3

Quoted from above (5 entries):
gene knocked down,reagent,G2 robust z-score,"G2 cells, % of GMNN control",raw share of cells in G2 (%)
PPP1R12C,1,2.25,18.8,10.9
PPP1R12C,2,0.954,9.68,7.22
PPP1R12C,3,-0.916,-3.47,2.45
RLN1,1,-1.42,-7.04,1.8
RLN1,2,-0.508,-0.608,4.77
